According to patent publication US4510085A, “Antihypertensive tetrapeptide amides” (G.D. Searle & Co., priority 1984, dated 1985):
Structures can show the parent of a compound that is named as a salt. Part of at least one peptide drawing is inferred or uncertain, most often the ends. Some entries repeat one wording, which the source may state once for all of them. Non-standard residues stand in square brackets, D forms with d. Residues, ends and D or L forms follow the SMILES beside them. ξ: configuration not given here. *: point of attachment. NH(1-Adamantyl) = C1C2CC3CC1CC(N*)(C2)C3; NH(2-adamantyl) = C1C2CC3CC1CC(C2)C3N*; NEtPhe = CCN[C@@H](Cc1ccccc1)C(=O)O; ξPhe(4-F) = NC(Cc1ccc(F)cc1)C(=O)O; dMet(O) = CS(=O)CC[C@@H](N)C(=O)O; NMeF = CN[C@@H](Cc1ccccc1)C(=O)O

What was measured:
[1] = molecular target: T1, human renin (Homo sapiens, UniProt P00797); test: Inhibition of Human Renin; format: biochemical; settings: angiotensin I formed by radioimmunoassay; considered active if inhibition was greater than 20%
T1 construct: tissue World Health Organization International Laboratory for Biological Standards (National Institute for Biological Standards and Control, London, England); host or cells: human kidney
T1 sequence (P00797 67-406): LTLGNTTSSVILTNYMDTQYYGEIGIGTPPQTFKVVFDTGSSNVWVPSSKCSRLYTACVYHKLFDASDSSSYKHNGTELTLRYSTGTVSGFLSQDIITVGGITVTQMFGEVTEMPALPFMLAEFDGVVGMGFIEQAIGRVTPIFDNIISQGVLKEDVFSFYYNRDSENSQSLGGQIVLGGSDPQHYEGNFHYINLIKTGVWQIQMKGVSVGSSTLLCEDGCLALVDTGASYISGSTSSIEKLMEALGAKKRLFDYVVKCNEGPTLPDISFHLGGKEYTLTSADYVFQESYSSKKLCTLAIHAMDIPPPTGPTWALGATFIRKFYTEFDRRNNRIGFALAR
Description: The renin inhibition activity of the compounds of this invention illustrated in the examples was tested by the following method.
International reference standard human renin, isolated from kidneys, was obtained from the World Health Organization International Laboratory for Biological Standards (National Institute for Biological Standards and Control, London, England). Renin activity is defined in "Goldblatt units" (GU), the quantity that, when injected directly into the blood stream of an unanesthetized dog, raises the direct mean femoral artery blood pressure by 30 mm Hg in about two minutes. E. Haas, L. Lewis, P. Scipione, and T. J. Koshy, Hypertension, 1, 112-117 (1979). Human angiotensinogen was used as an unisolated component of human blood plasma. The enzyme inhibition assay, see K. Poulsen, J. Burton, and E. Haber, Biochemistry, 12, 3877-3882 (1973), involved a two-hour incubation at 37° C. of the following final concentrations of reagents (0.25 ml total volume): 0.1 mGU/ml human renin; 0.05 ml human plasma; 6 mM disodium EDTA; 2.4 mM phenylmethylsulfonyl fluoride and 1.5 mM 8-hydroxyquinoline (angiotensinase inhibitors); 0.4 mg/ml bovine serum albumin; and 0.024 neomycin sulfate in 100 mM Tris-acetate buffer (pH 7.5). The enzymatic reaction was terminated by boiling the mixture for ten minutes. The quantity of angiotensin I formed was determined by radioimmunoassay, using the general method used in the angiotensin I radioimmunoassay kit of New England Nuclear.

[2] = system: Opiate receptor; test: Opiate Receptor Binding; settings: rat brain membrane homogenates, tritium-labeled naloxone
Description: Opiate receptor binding of the compounds of this invention illustrated in the examples was tested by the following method.
A 2 ml portion of the homogenate is incubated at 25° with the test compound (10 mcM) and tritium-labeled naloxone (1.0 nM). After sixty minutes, samples were rapidly cooled on ice, collected over glass-fiber filters, washed with cold buffer, and solubilized by incubation with 1.0 ml of NCS tissue solubilizer. Samples were then prepared for counting in a liquid scintillation counter. Specific binding was calculated, with results expressed as percent inhibition at the test dose.

| Compound | renin inhibition activity [1] | opiate receptor binding relative to prior art compounds of U.S. Pat. No. 4,273,704 [2] |
| --- | --- | --- |
| C[S+]([O-])CC[C@@H](NC(=O)[C@@H](N)Cc1ccccc1)C(=O)NCC(=O)N[C@@H](Cc1ccccc1)C(=O)NC1C2CC3CC(C2)CC1C3 (stereo partly drawn) [Example 16, L-phenylalanyl-[4-(methylsulfinyl)-D-2-aminobutanoyl]glycyl-N-(2-adamantyl)-L-phenylalaninamide hydrochloride hemihydrate] (H-F[dMet(O)]GF-{NH(2-adamantyl)}) | possess renin inhibition activity | significantly lower opiate receptor binding |
| CSCC[C@@H](NC(=O)C(N)Cc1ccc(F)cc1)C(=O)NCC(=O)N[C@@H](Cc1ccccc1)C(=O)NC1C2CC3CC(C2)CC1C3 (stereo partly drawn) [Example 25, 4-fluoro-D,L-phenylalanyl-D-methionylglycyl-N-(2-adamantyl)-L-phenylalaninamide hydrochloride 1/4 hydrate] (H-[ξPhe(4-F)][dM]GF-{NH(2-adamantyl)}) | possess renin inhibition activity | significantly lower opiate receptor binding |
| CCN[C@@H](Cc1ccccc1)C(=O)N[C@H](CCSC)C(=O)NCC(=O)N[C@@H](Cc1ccccc1)C(=O)NC12CC3CC(CC(C3)C1)C2 [Example 33, N^α -ethyl-L-phenylalanyl-D-methionylglycyl-N-(1-adamantyl)-L-phenylalaninamide hydrochloride hemihydrate] (H-[NEtPhe][dM]GF-{NH(1-Adamantyl)}) | possess renin inhibition activity | significantly lower opiate receptor binding |
| CCN[C@@H](Cc1ccccc1)C(=O)N[C@H](CCSC)C(=O)NCC(=O)N(C)[C@@H](Cc1ccccc1)C(=O)NC1C2CC3CC(C2)CC1C3 (stereo partly drawn) [Example 39, N^α -ethyl-L-phenylalanyl-D-methionylglycyl-N-(2-adamantyl)-N^α -methyl-L-phenylalaninamide hydrochloride hemihydrate] (H-[NEtPhe][dM]G[NMeF]-{NH(2-adamantyl)}) | possess renin inhibition activity | significantly lower opiate receptor binding |
